# Laboratory results published in PubChem BioAssay AID588590 (National Center for Advancing Translational Sciences (NCATS), 2011).
# Sequences of proteins named here, by UniProt entry; tags and fusion partners are left off. A change or cut given only in a name is not applied to a line headed by its entry.
# UniProt Q9UNA4: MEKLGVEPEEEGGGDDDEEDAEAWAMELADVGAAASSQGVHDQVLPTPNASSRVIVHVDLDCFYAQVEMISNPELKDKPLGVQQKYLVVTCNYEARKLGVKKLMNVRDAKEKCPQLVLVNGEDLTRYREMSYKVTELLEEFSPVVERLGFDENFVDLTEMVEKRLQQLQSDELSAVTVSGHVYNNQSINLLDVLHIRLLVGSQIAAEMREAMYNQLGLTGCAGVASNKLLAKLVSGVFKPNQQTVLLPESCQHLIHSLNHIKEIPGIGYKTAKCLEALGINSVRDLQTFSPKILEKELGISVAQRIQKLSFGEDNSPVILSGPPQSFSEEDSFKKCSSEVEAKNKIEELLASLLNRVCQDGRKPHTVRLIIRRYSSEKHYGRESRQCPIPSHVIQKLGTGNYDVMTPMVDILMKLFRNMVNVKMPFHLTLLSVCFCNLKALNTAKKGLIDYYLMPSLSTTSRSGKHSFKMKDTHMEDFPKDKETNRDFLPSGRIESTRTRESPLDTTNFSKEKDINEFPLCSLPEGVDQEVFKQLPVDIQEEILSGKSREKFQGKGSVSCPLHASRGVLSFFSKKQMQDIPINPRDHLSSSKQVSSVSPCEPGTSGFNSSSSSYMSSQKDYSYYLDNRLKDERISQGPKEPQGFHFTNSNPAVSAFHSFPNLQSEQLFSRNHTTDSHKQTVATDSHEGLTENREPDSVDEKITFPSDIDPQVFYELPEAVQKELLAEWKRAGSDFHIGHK
# “And” between values parts separate entries of the source, which are not always exact repeats. Equal values may be shown once. Screen size: about 390,000 compounds; about 4,000 (1%) were called active. The inconclusive results got no clear call from the source; some entries with a clear call stand among them for comparison. The call rests on the fitted dose curve; in most records, active means well fitted inhibition curve with a large enough effect; inconclusive means small, poorly fitted or top-dose-only effect, or another doubt; inactive means no such curve, though single readings can be large or run the other way. Where the call is inconclusive, the potency comes from a doubtful curve fit.
# Molecular target: DNA polymerase iota (Homo sapiens) (UniProt Q9UNA4)
# Assay: qHTS for Inhibitors of Polymerase Iota
# Details: Pol iota fluorescent replication assay, 10 min; series mostly up to 115 µM
# Method in brief: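 Fluorescent replication assay read twice, at 0 min and 10 min after adding 50 nM (final) substrate. Enzyme (10 nM) and compounds were first incubated 15 min at room temperature; enzyme-free buffer wells were negative controls.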
# Potency means the concentration at half of the fitted maximal effect.
row,SMILES,Potency
1,CC(/C=N/NC(=O)c1nnn(-c2nonc2N)c1CN(C)C)=C\c1ccco1,active: 20 µM
2,O=C1c2ccccc2C(=O)N1c1nccs1,inactive
3,CC(C)Oc1ccc(C2CNC(=O)C2)cc1 (stereo not drawn),"inconclusive: 0.708 µM [inhibitor, full curve, poor fit]"
4,Cc1cc(C)c(S(=O)(=O)N2CCN(C(=O)c3c(C)noc3C)CC2)c(C)c1,inactive
5,CC(C)(Oc1ccc(Cl)cc1)C(=O)NC1=NN(c2ccccc2)C(=O)C1,"inconclusive: 112 µM [inhibitor, partial curve, poor fit]"
6,CN1C(C(=O)Nc2ccc(F)cc2F)=CC(c2ccco2)=NS1(=O)=O,"inconclusive: 89.1 µM [inhibitor, single point]"
7,COc1ccc(N)c2c1C(=O)c1ccccc1C2=O,"inconclusive: 31.6 µM [inhibitor, partial curve, poor fit]"
8,O=C(Nc1nc(-c2ccccc2)cs1)c1ccccc1NS(=O)(=O)c1ccc(F)cc1,inactive
9,O=C(/C=C/c1ccccc1)NC(=S)Nc1ncccn1,"inconclusive: 56.2 µM [inhibitor, partial curve, poor fit]"
10,O=C(/C=C/c1ccccc1Cl)Nc1ccc2c(c1)C(=O)NC2=O,"inconclusive: 44.7 µM [inhibitor, full curve, poor fit]"
11,Cc1ccc(N2CCN(CC3CC=CCC3)CC2)cc1 (stereo not drawn),"inconclusive: 20 µM [inhibitor, partial curve, poor fit]"
12,C/C(=N\Nc1ccc(C(=O)O)cc1)c1ccc2c(c1)Nc1ccccc1S2,active: 22.4 µM
13,NC(=O)c1ccc(N=C2C(=O)Nc3ccc([N+](=O)[O-])cc32)cc1,"inconclusive: 25.1 µM [inhibitor, single point]"
14,COc1ccc(NS(=O)(=O)c2cccc(C(=O)N/N=C(/C)c3ccc(-n4ccnc4)cc3)c2)cc1,active: 39.8 µM
15,CCN(CCCNC(=O)c1cc2c(=O)n(C)c3ccccc3c2s1)Cc1ccccc1,"inconclusive: 89.1 µM [inhibitor, single point]"
16,Cc1ccc(S(=O)(=O)NC(Cc2c[nH]c3ccccc23)C(=O)O)cc1 (stereo not drawn),"inconclusive: 28.2 µM [inhibitor, partial curve, poor fit]"
17,COCCCNC(=O)c1oc2c(c1C)-c1nn(Cc3cccc(Cl)c3)cc1CC2,"inconclusive: 44.7 µM [inhibitor, partial curve, poor fit]"
18,Cc1nonc1OCCNCCNc1ccc([N+](=O)[O-])cc1Cl,"inconclusive: 89.1 µM [inhibitor, single point]"
19,O=c1ccc(NS(=O)(=O)c2ccc(Cl)cc2)cn1Cc1ccc(Cl)c(Cl)c1,"inconclusive: 28.2 µM [inhibitor, full curve, poor fit]"
20,CCOc1ccc(Nc2nc3ccccc3c(=O)s2)cc1,"inconclusive: 89.1 µM [inhibitor, single point]"
21,CC1=NN(c2nc(-c3ccccc3)cs2)C(=O)C1,"inconclusive: 11.2 µM [inhibitor, full curve]"

row,SMILES,Potency
1,O=C(/C=C/c1ccc(O)cc1)c1ccc(O)cc1O,"inconclusive: 89.1 µM [inhibitor, single point] and inconclusive: 79.4 µM [inhibitor, partial curve, poor fit]"
2,COc1ccc(OC)c(/C=N/c2oc(-c3ccco3)c(-c3ccco3)c2C#N)c1,"inconclusive: 14.1 µM [inhibitor, full curve, poor fit]"
3,Cc1ccccc1-c1nc(CS(=O)(=O)CC(=O)NCC(C)c2ccccc2)c(C)o1 (stereo not drawn),inactive
4,O=C(c1cc(-c2ccccc2)on1)N1CCCc2ccccc21,inactive
5,C#CCOC(=O)CCCC(=O)NCCCCCCCC,"inconclusive: 44.7 µM [inhibitor, partial curve, poor fit]"
6,COc1ccc(OC)c(NC(=O)CSc2nnc(CNC(=O)c3ccco3)o2)c1,"inconclusive: 35.5 µM [inhibitor, single point]"
7,CN1/C(=C\C=N\O)C(C)(C)c2ccccc21,inactive
8,COc1ccc(CN2CCN(S(=O)(=O)c3ccccc3)CC2)cc1Br,"inconclusive: 11.2 µM [inhibitor, partial curve, poor fit]"
9,COc1cccc(/C=C/C(=O)OCC(=O)Nc2ccc(Cl)c(S(=O)(=O)N(C)C)c2)c1,inactive
10,CCOC(=O)c1c(C)[nH]c(C)c1C(=O)COC(=O)c1nc2nccc(C)n2n1,inactive
11,N=c1c(C(=O)NCC2CCCO2)cc2c(=O)n3ccccc3nc2n1Cc1ccco1 (stereo not drawn),"inconclusive: 25.1 µM [inhibitor, partial curve, poor fit]"
12,COc1ccc(C2(CNC(=O)/C=C\c3ccco3)CCCC2)cc1OC,"inconclusive: 112 µM [inhibitor, single point]"
13,CC(C)(C)C(=O)COC(=O)c1c2c(nc3ccccc13)CCC2,"inconclusive: 17.8 µM [inhibitor, single point]"
14,O=S1(=O)CCOC[C@H](Cc2ccccc2)N1Cc1ccccc1Br,"inconclusive: 39.8 µM [inhibitor, single point]"
15,COC(=O)c1c(NC(=O)COC(=O)c2ccc(NC(=O)CC#N)cc2)sc2c1CCCCC2,active: 14.1 µM
16,O=C(O)c1cccc(S(=O)(=O)Nc2ccccc2N2CCOCC2)c1,"inconclusive: 0.891 µM [inhibitor, full curve, poor fit]"
17,CNC(=O)C1C(=S)NC(N)=C(C#N)C1c1ccccc1 (stereo not drawn),"inconclusive: 22.4 µM [inhibitor, partial curve, poor fit]"
18,COc1ccc(-n2c(O)c(/C=N/NS(=O)(=O)c3ccc(C)c([N+](=O)[O-])c3)c3ccccc3c2=O)cc1OC,"inconclusive: 10 µM [inhibitor, partial curve, poor fit]"
19,O=C(c1ccc(CNc2c(N3CCOCC3)c(=O)c2=O)cc1)N1CC=C(c2ccccc2)CC1,"inconclusive: 79.4 µM [inhibitor, partial curve]"
20,O=C(Nc1c(Cl)ccc2nsnc12)c1ccc([N+](=O)[O-])o1,"inconclusive: 50.1 µM [inhibitor, partial curve, poor fit]"
21,N#C/C(=C\C=C\c1ccccc1)c1nc(-c2ccc(Cl)cc2)cs1,"inconclusive: 70.8 µM [inhibitor, partial curve]"

# Molecules listed so far containing a thiophene ring, fused or not (2):
row,SMILES,Potency
15,CCN(CCCNC(=O)c1cc2c(=O)n(C)c3ccccc3c2s1)Cc1ccccc1,"inconclusive: 89.1 µM [inhibitor, single point]"
15,COC(=O)c1c(NC(=O)COC(=O)c2ccc(NC(=O)CC#N)cc2)sc2c1CCCCC2,active: 14.1 µM

# Continued:

row,SMILES,Potency
1,N=C1/C(=C\c2ccc(-c3cc(Cl)cc(Cl)c3)o2)C(=O)N=C2SC=C(c3ccccc3)N12,"inconclusive: 22.4 µM [inhibitor, single point]"
2,CCCCC(CC)CNC(=O)CN1C(=O)CSc2ccc(S(=O)(=O)N3CCOCC3)cc21 (stereo not drawn),"inconclusive: 100 µM [inhibitor, single point]"
3,O=C(Cn1c(=O)nc(-c2ccccc2F)c2cc(Cl)ccc21)N1CCN(c2ccccc2F)CC1,inactive
4,CSc1nc(C)c(Cl)c(C)c1C#N,"inconclusive: 100 µM [inhibitor, single point]"
5,COc1cc(-c2csc(NC3CCCCC3)n2)cc(OC)c1OC,"inconclusive: 31.6 µM [inhibitor, partial curve, poor fit]"
6,CC1C/C(=N\NC(=S)NCc2ccccc2)CC(C)(C)C1 (stereo not drawn),"inconclusive: 0.708 µM [inhibitor, full curve, poor fit]"
7,COc1cccc(C2C(=O)c3ccccc3C2=O)c1,"inconclusive: 0.316 µM [inhibitor, full curve, poor fit]"
8,Cc1cc(C)c(NC(=O)CNC(=O)c2ccccc2OCc2c(C)noc2C)c(C)c1,inactive
9,O=C(c1ccc2c(c1)N(Cc1ccc(F)cc1)C(=O)c1ccccc1S2=O)N1CCC(Cc2ccccc2)CC1 (stereo not drawn),inactive
10,CCOc1ccc(-n2nnc3c(=O)n(CC(=O)NCc4ccco4)cnc32)cc1,"inconclusive: 56.2 µM [inhibitor, partial curve, poor fit]"
11,Cc1ccc(S(=O)(=O)Nc2ccc(C(=O)N3CCN(c4ccccc4O)CC3)cc2)cc1[N+](=O)[O-],"inconclusive: 20 µM [inhibitor, full curve, poor fit]"
12,Cc1cc(C)nc(NS(=O)(=O)c2ccc(N/C=C\C(=O)c3cccs3)cc2)n1,"inconclusive: 0.708 µM [inhibitor, full curve, poor fit]"
13,CCC[C@H](CN[C@@H](CNC)[C@H](C)CC)NCCc1cc(C(F)(F)F)cc(C(F)(F)F)c1,"inconclusive: 39.8 µM [inhibitor, single point]"
14,O=C(Nc1cccc(S(=O)(=O)NC2=NCCCCC2)c1)c1cc(-c2ccco2)nc2ccccc12,active: 14.1 µM
15,CC(C)N1CCC2(CC1)Oc1ccc(Br)cc1C1CC(c3cccnc3)=NN12 (stereo not drawn),"inconclusive: 17.8 µM [inhibitor, single point]"
16,CC1(CC(=O)N/N=C/c2cc([N+](=O)[O-])c(O)cc2O)OCCO1,"inconclusive: 39.8 µM [inhibitor, full curve, poor fit]"
17,CCCCCCN1CC(=O)N2[C@@H](Cc3c([nH]c4ccccc34)C2(C)C)C1=O,"inconclusive: 79.4 µM [inhibitor, partial curve, poor fit]"
18,COc1ccccc1NC(=O)c1cccc(S(=O)(=O)N2CCCCCC2)c1,inactive
19,CCOc1ccc(-c2cn(CCC#N)cn2)cc1,"inconclusive: 89.1 µM [inhibitor, single point]"
20,CCC(=O)N(C)CCc1cc2c(c(OC)c1/C=N/NC(=O)c1ccc(Br)cc1)OCO2,"inconclusive: 89.1 µM [inhibitor, partial curve, poor fit]"
21,Cc1nc(SCc2nc3ccc(Cl)cc3[nH]2)c2oc3ccccc3c2n1,"inconclusive: 25.1 µM [inhibitor, single point]"
